{
  "sequences": {"note": "Chains of the proteins cited; added tags and fusions are not shown.", "UniProt Q9H7B4, whole entry": "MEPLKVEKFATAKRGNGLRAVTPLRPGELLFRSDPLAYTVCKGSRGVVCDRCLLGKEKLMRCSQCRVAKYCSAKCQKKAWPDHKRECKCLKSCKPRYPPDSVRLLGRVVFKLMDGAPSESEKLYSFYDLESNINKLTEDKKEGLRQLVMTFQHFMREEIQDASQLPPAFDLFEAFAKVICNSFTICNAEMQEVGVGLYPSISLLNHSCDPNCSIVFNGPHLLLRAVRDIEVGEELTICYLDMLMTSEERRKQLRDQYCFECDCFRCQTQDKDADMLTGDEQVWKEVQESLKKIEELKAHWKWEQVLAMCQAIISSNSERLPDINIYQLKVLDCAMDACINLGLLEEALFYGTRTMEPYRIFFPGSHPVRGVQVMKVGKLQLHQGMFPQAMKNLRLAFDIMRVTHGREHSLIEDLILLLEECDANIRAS"},
  "source": "patent US20190071416A1",
  "about": "“COMPOUNDS FOR TREATMENT OF CANCER AND EPIGENETICS” (Agency For Science, Technology and Research, priority 2015, published 2019)",
  "target": "SMYD3 (Homo sapiens, UniProt Q9H7B4)",
  "assay": "SMYD3 biochemical assay (MTase-Glo, MAP3K2 peptide substrate)",
  "conditions": "Table 3",
  "procedure": "A SMYD3 enzymatic assay was developed using Promega's Methyltransferase-Glo™ reagents. In the assay, SMYD3 catalyzes the methylation of the MAP3K2 peptide substrate by transferring a methyl group from SAM to MAP3K2 peptide and further converts the SAM to SAH. The SMYD3 methyltransferase activity is measured based on the amount of SAH produced from the reaction through the use of coupling enzymes that convert the SAH to ATP. The MTase-Glo detection solution then catalyzes the formation of light from ATP.\nFor the IC50 determination, the compounds were incubated with 0.4 μM of SMYD3 enzyme for 30 min in low volume 384 well plates. A final concentration of 1.0 μM and 10 μM SAM and MAP3K2 peptide were added and further incubated for 30 min at room temperature before adding the MTase Glo and detection reagent. Reaction signals were detected using microplate readers on luminescent mode (Safire Tecan). The IC50 was determined by non-linear regression, using GraphPad Prism version, 5.03.",
  "note": "The match of structure and compound is tentative.",
  "data": [
    {"compound": "C=CCOC(=O)N1CCN(C(=O)c2ccc3c(Cl)c(C)c(C)nc3c2)CC1", "values": [
      {"measurement": "IC50", "value": 7700, "unit": "nM"}
    ]},
    {"compound": "CCCOC(=O)N1CCN(C(=O)c2ccc3c(Cl)c(CC)cnc3c2)CC1", "values": [
      {"measurement": "IC50", "value": 3200, "unit": "nM"}
    ]},
    {"compound": "O=C(c1ccc2c(Cl)c3c(nc2c1)CC(c1ccccn1)CC3)N1CCN(C(=O)c2cn(C3CC3)nn2)CC1", "note": "(stereo not shown)", "values": [
      {"measurement": "IC50", "value": 82, "unit": "nM"}
    ]},
    {"compound": "CCCCC(=O)N1CCN(C(=O)c2ccc3c(Cl)cc(-c4ccccc4)nc3c2)CC1", "values": [
      {"measurement": "IC50", "value": 290, "unit": "nM"}
    ]},
    {"compound": "CCCOC(=O)N1CCN(C(=O)c2ccc3c(Cl)cc(-c4ccc(C)c(O)c4)nc3c2)CC1", "values": [
      {"measurement": "IC50", "value": 280, "unit": "nM"}
    ]},
    {"compound": "CCCOC(=O)N1CCN(C(=O)c2ccc3c(Cl)c(C)c(-c4ccccc4)nc3c2)CC1", "values": [
      {"measurement": "IC50", "value": 380, "unit": "nM"}
    ]},
    {"compound": "C#Cc1ccc(C2CCc3c(nc4cc(C(=O)N5CCN(C(=O)OCCC)CC5)ccc4c3Cl)C2)nc1", "note": "(stereo not shown)", "values": [
      {"measurement": "IC50", "value": 410, "unit": "nM"}
    ]}
  ]
}
